Measurements taken from the supplement of paper PMC8728848.
This is one part of the list.

Legend:
Assay in all cases: glycan array binding signal (z-score within array); higher = stronger binding
Details in all cases: glycan notation: IUPAC condensed, linker removed
Gal(b1-3)GalNAc = target: Gal(b1-3)GalNAc
Procedure, shortened: (§1)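 The binding signal is a Z-score computed within each array. Data were drawn from 3228 arrays in the Consortium for Functional Glycomics database, restricted to those with a known protein sequence. Scores were averaged over arrays of the same protein sequence at different concentrations or buffers, and over linkers, and negative values can be taken as non-binding.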

[1] = target: Gal(b1-3)GalNAc(b1-3)Gal(a1-4)Gal(b1-4)Glc
Procedure, shortened: as §1

[2] = target: Gal(b1-3)GalNAc(b1-4)Gal(b1-4)Glc
Procedure, shortened: as §1

[3] = target: Gal(b1-3)GalNAc(b1-4)[Neu5Ac(a2-3)]Gal(b1-4)Glc
Procedure, shortened: as §1

Gal(b1-3)GlcNAc = target: Gal(b1-3)GlcNAc
Procedure, shortened: as §1

[4] = target: Gal(b1-3)GlcNAc(b1-3)Gal(b1-3)GlcNAc
Procedure, shortened: as §1

[5] = target: Gal(b1-3)GlcNAc(b1-3)Gal(b1-4)Glc
Procedure, shortened: as §1

[6] = target: Gal(b1-3)GlcNAc(b1-3)Gal(b1-4)GlcNAc
Procedure, shortened: as §1

[7] = target: Gal(b1-3)[Fuc(a1-4)]GlcNAc
Procedure, shortened: as §1

[8] = target: Gal(b1-3)[Fuc(a1-4)]GlcNAc(b1-3)Gal(b1-3)[Fuc(a1-4)]GlcNAc
Procedure, shortened: as §1

[9] = target: Gal(b1-3)[Fuc(a1-4)]GlcNAc(b1-3)Gal(b1-4)GlcNAc
Procedure, shortened: as §1

[10] = target: Gal(b1-3)[Fuc(a1-4)]GlcNAc(b1-3)Gal(b1-4)[Fuc(a1-3)]GlcNAc
Procedure, shortened: as §1

[11] = target: Gal(b1-3)[GlcNAc(b1-6)]GalNAc
Procedure, shortened: as §1

[12] = target: Gal(b1-3)[Neu5Ac(a2-6)]GalNAc
Procedure, shortened: as §1

[13] = target: Gal(b1-3)[Neu5Ac(a2-6)]GlcNAc(b1-6)Gal(b1-4)Glc
Procedure, shortened: as §1

[14] = target: Gal(b1-3)[Neu5Ac(b2-6)]GalNAc
Procedure, shortened: as §1

[15] = target: Gal(b1-4)GalNAc(a1-3)[Fuc(a1-2)]Gal(b1-4)GlcNAc
Procedure, shortened: as §1

[16] = target: Gal(b1-4)GalNAc(b1-3)[Fuc(a1-2)]Gal(b1-4)GlcNAc
Procedure, shortened: as §1

Gal(b1-4)Glc = target: Gal(b1-4)Glc
Procedure, shortened: as §1

Gal(b1-4)Glc6S = target: Gal(b1-4)Glc6S
Procedure, shortened: as §1

Gal(b1-4)GlcNAc = target: Gal(b1-4)GlcNAc
Procedure, shortened: as §1

[17] = target: Gal(b1-4)GlcNAc(b1-2)Man(a1-3)[Gal(b1-4)GlcNAc(b1-2)Man(a1-6)]Man(b1-4)GlcNAc(b1-4)GlcNAc
Procedure, shortened: as §1

[18] = target: Gal(b1-4)GlcNAc(b1-3)Gal(b1-3)GlcNAc
Procedure, shortened: as §1

[19] = target: Gal(b1-4)GlcNAc(b1-3)Gal(b1-4)Glc
Procedure, shortened: as §1

[20] = target: Gal(b1-4)GlcNAc(b1-3)Gal(b1-4)GlcNAc
Procedure, shortened: as §1

[21] = target: Gal(b1-4)GlcNAc(b1-3)Gal(b1-4)GlcNAc(b1-3)Gal(b1-4)GlcNAc
Procedure, shortened: as §1

[22] = target: Gal(b1-4)GlcNAc(b1-3)Gal(b1-4)[Fuc(a1-3)]GlcNAc(b1-3)Gal(b1-4)[Fuc(a1-3)]GlcNAc
Procedure, shortened: as §1

[23] = target: Gal(b1-4)GlcNAc(b1-3)GalNAc
Procedure, shortened: as §1

[24] = target: Gal(b1-4)GlcNAc(b1-3)[Gal(b1-4)GlcNAc(b1-6)]GalNAc
Procedure, shortened: as §1

[25] = target: Gal(b1-4)GlcNAc(b1-6)Gal(b1-4)GlcNAc(b1-6)GalNAc
Procedure, shortened: as §1

B1: Fap1 (Streptococcus parasanguis) (protein)
chain: KATSKGTEEKQDSVRENLDKMISEAEVLNDMAARKLITLDAEQQLELMKSLVATQSQLEATKNLIGDPNATVADLQIAYTTLGNNTQALGNELIKLNPNGQIYAVLNNTEASRAATLRSTTTGTKTTFTISDFSNGGTQYYWAGGNANNLKNPISSISAVYDSATGKISWTVEYDPTTILKSPALKTLKTYTGIYIDTSSDSKLSTPTNVLIDGAATNPVTNFYGNGSKGIEYVSKGTTKGVTKHTITFDTAFSGRANDLADLEIKMLAATTLSDPHFYEDGSKGNYGRYNGQTAPYVIANDSGTAIGGYQVSGVNADSIPSDTT
Gal(b1-3)GalNAc
  glycan array binding signal (z-score): -0.24
[1]
  glycan array binding signal (z-score): -0.169
[2]
  glycan array binding signal (z-score): 0.325
[3]
  glycan array binding signal (z-score): -0.471
Gal(b1-3)GlcNAc
  glycan array binding signal (z-score): 0.462
[4]
  glycan array binding signal (z-score): -0.86
[5]
  glycan array binding signal (z-score): -0.192
[6]
  glycan array binding signal (z-score): -0.243
[7]
  glycan array binding signal (z-score): 0.21
[8]
  glycan array binding signal (z-score): 0.004
[9]
  glycan array binding signal (z-score): -0.712
[10]
  glycan array binding signal (z-score): -0.619
[11]
  glycan array binding signal (z-score): -0.4
[12]
  glycan array binding signal (z-score): -0.055
[13]
  glycan array binding signal (z-score): -0.688
[14]
  glycan array binding signal (z-score): -0.541
[15]
  glycan array binding signal (z-score): -0.822
[16]
  glycan array binding signal (z-score): 0.142
Gal(b1-4)Glc
  glycan array binding signal (z-score): -0.51
Gal(b1-4)Glc6S
  glycan array binding signal (z-score): -0.072
Gal(b1-4)GlcNAc
  glycan array binding signal (z-score): 0.13
[17]
  glycan array binding signal (z-score): -0.304
[18]
  glycan array binding signal (z-score): -0.913
[19]
  glycan array binding signal (z-score): -0.861
[20]
  glycan array binding signal (z-score): -0.545
[21]
  glycan array binding signal (z-score): -0.471
[22]
  glycan array binding signal (z-score): 0.461
[23]
  glycan array binding signal (z-score): 1.12
[24]
  glycan array binding signal (z-score): -0.525
[25]
  glycan array binding signal (z-score): -0.15
